Some peptides are written in HELM: one residue between dots, names in brackets for other building blocks, links after the first $.
Assay: peptide synthesis
Conditions: late stage modification step

For “PEPTIDE1{[CH2CO].[dY].R.D.[FAO].H.Y.R.H.P.K.Y.C.G.[am]}$PEPTIDE1,PEPTIDE1,1:R3-13:R3$$$V2.0”, the difficulty met was “partial removal of the N-terminal Fmoc group. This led to a mixture of peptide products containing both one and two warheads”.

Reference: publication PMC11659602 (Communications Chemistry, 2024)
